According to the supplement of paper PMC10849652:
The other results are listed elsewhere or left out.

Amino acid sequences for entries named in this document (tags omitted). A change or cut given only in a name is not applied to a line headed by its entry.
UniProt Q86U06: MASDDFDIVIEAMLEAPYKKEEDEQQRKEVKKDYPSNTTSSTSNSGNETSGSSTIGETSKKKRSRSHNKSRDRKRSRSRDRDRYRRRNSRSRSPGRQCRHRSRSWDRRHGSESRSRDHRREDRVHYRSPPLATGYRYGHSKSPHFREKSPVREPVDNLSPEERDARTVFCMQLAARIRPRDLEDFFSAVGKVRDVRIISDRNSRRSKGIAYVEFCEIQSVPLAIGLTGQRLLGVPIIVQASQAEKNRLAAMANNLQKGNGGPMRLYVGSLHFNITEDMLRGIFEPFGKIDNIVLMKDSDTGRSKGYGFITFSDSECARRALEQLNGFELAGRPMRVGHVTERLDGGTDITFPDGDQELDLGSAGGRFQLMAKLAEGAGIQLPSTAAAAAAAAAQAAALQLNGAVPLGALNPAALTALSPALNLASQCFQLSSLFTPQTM
UniProt P47736: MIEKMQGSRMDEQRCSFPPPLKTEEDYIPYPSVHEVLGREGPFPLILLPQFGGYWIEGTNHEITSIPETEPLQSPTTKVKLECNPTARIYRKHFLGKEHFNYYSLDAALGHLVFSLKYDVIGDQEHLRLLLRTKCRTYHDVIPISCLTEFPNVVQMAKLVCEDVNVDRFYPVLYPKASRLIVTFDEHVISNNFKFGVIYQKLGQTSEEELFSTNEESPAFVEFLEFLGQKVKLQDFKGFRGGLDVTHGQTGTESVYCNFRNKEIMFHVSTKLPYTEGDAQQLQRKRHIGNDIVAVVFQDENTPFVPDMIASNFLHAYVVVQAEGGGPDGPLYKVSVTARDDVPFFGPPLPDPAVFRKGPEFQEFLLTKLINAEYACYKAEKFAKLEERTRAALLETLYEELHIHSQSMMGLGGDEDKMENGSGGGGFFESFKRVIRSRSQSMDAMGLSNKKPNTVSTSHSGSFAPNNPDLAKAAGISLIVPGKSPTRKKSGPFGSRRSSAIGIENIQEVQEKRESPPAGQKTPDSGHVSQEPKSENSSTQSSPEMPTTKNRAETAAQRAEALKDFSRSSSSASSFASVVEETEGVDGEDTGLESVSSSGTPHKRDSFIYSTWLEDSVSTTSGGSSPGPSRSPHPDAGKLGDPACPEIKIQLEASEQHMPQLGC
UniProt P20337: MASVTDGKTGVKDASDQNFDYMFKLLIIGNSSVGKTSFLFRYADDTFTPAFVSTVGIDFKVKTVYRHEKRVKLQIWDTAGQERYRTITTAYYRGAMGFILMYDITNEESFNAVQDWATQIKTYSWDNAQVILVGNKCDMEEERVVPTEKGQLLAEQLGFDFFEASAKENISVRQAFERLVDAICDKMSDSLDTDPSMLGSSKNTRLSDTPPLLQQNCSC

Assays:
Assay in all cases: log2 fold change, soluble protein after heating vs DMSO (PISA); higher = thermal stabilisation; K562 cells, 10 uM, 30 min; active = over 0.2 and 3.5 SD of the protein, either way, in both replicates (recomputed)
[1] = compound: CC1=C(C=C(C=C1)NC(=O)C2=CC(=CC=C2)C(C)(C)C#N)NC3=CC4=C(C=C3)N=CN(C4=O)C
Method in brief: (§1)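 Quantification of soluble protein used TMTpro 16plex LC-MS/MS, with channel sums equalised. Samples were the supernatant after 21,000xg for 90 min of pooled aliquots from K562 cells (2×10^6 cells/mL) treated with 10 μM compound for 30 min, heated for 3 min over 48°C-58°C, and extracted in PBS with 0.5% NP-40 at 4°C. Values, from duplicates, describe thermal stability against control samples on a log2 fold-change scale.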

[2] = compound: CC1=C(C=C(C=C1)NC(=O)C2=CC(=CC=C2)N(C)C)NC(=O)C3=CC=C(C=C3)O
Method in brief: as §1

[3] = compound: CC1=CC=C(C=C1)SC2=C3C=C(SC3=CN=C2)C(=O)N
Method in brief: as §1

[4] = compound: CCCCN(Cc1ccc(C(=O)NO)cc1)C(=O)Nc1ccccc1 [Nexturastat A]
Method in brief: as §1

[5] = compound: CCCS(=O)(=O)Nc1ccc(F)c(C(=O)c2c[nH]c3ncc(-c4ccc(Cl)cc4)cc23)c1F [vemurafenib]
Method in brief: as §1

[6] = compound: CCCS(=O)(=O)Nc1ccc(F)c(C(=O)c2c[nH]c3ncc(Cl)cc23)c1F
Method in brief: as §1

[7] = compound: CCN(CC)Cc1ccc2cc(COC(=O)Nc3ccc(C(=O)NO)cc3)ccc2c1 [givinostat]
Method in brief: as §1

[8] = compound: CCN(CCCOc1ccc2c(Nc3cc(CC(=O)Nc4cccc(F)c4)[nH]n3)ncnc2c1)CCOP(=O)(O)O [barasertib]
Method in brief: as §1

[9] = compound: CC[C@@H]1C(=O)N(C)c2cnc(Nc3ccc(C(=O)N[C@H]4CC[C@H](N5CCN(CC6CC6)CC5)CC4)cc3OC)nc2N1C(C)C [volasertib]
Method in brief: as §1

[10] = compound: CC[C@H](C)[C@@H](C(=O)N[C@@H]([C@@H](C)O)C(=O)N[C@@H](CC(C)C)C(=O)[C@]1(CO1)C)NC(=O)[C@H]([C@@H](C)CC)N(C)C(=O)C [epoxomicin]
Method in brief: as §1

[11] = compound: CCn1c(C(=O)N(C2CC2)C2CC2)cc2c3c(ncn3C)c(Nc3cc(C)n(C)n3)nc21
Method in brief: as §1

[12] = compound: CN(C)CC(=O)Nc1ccc2[nH]c(=O)c3ccccc3c2c1
Method in brief: as §1

[13] = compound: CN(CCOC1=CC=C(C=C1)C[C@H]2C(=O)NC(=O)S2)C3=CC=CC=N3 (racemic) [rosiglitazone]
Method in brief: as §1

[14] = compound: CN1C2=C(C3=C1C(=O)N(N=C3)CC4=CC(=CC=C4)N)SC(=C2)S(=O)C
Method in brief: as §1

[15] = compound: CC1=NC(=CC=C1)C2=C(N=C(N2)C(C)(C)C)C3=CC4=NC=CN=C4C=C3
Method in brief: as §1

[16] = compound: CCCc1cc(C)[nH]c(=O)c1CNC(=O)c1cc(-c2ccnc(N3CCN(C)CC3)c2)cc2c1cnn2C(C)C
Method in brief: as §1

[17] = compound: CC[C@H](C)N1C=C(C2=C(C=C(C=C21)C3=CN=C(C=C3)N4CCNCC4)C(=O)NCC5=C(C=C(NC5=O)C)C)C
Method in brief: as §1

[18] = compound: CCn1cc(-c2ccnc3[nH]c(-c4cccc(CN(C)C)c4)cc23)c(-c2ccc(NC(=O)N(C)C)cc2)n1
Method in brief: as §1

[19] = compound: CN1CCC(CNc2ccc3ncc(-c4cccc(OC(F)(F)F)c4)n3n2)CC1
Method in brief: as §1

Measured: log2 fold change

RBM23 (UniProt Q86U06)
inactive: [1] -0.059 | [2] 0.194 | [3] -0.513 | [4] 0.072 | [5] 0.175 | [6] 0.268 | [7] -0.038 | [8] 0.024 | [9] -0.379 | [10] 0.046 | [11] 0.117 | [12] 0.22 | [13] 0.185 | [14] -0.292

RAP1GAP isoform 4 (UniProt P47736)
inactive: [1] -0.052 | [2] -0.073 | [3] 0.074 | [15] 0.007 | [4] 0.094 | [5] -0.002 | [6] 0.002 | [16] 0 | [7] 0.136 | [8] -0.036 | [9] -0.321 | [17] 0.109 | [10] -0.039 | [11] -0.126 | [18] 0.101 | [12] 0.014 | [13] 0.129 | [14] 0.037 | [19] -0.487

RAB3B (UniProt P20337)
inactive: [1] -0.114 | [2] 0.23 | [3] -0.002 | [6] -0.169 | [7] -0.077 | [9] -0.065 | [11] 0.035 | [18] 0.592 | [19] -0.124
